# Measured values as given in publication PMC8772167.
# B1: Arabidopsis TGA4 (GAL4 activation domain fusion in pGADT7) (protein, UniProt Q39162 1-364)
# chain: MNTTSTHFVPPRRFEVYEPLNQIGMWEESFKNNGDMYTPGSIIIPTNEKPDSLSEDTSHGTEGTPHKFDQEASTSRHPDKIQRRLAQNREAARKSRLRKKAYVQQLETSRLKLIHLEQELDRARQQGFYVGNGVDTNALSFSDNMSSGIVAFEMEYGHWVEEQNRQICELRTVLHGQVSDIELRSLVENAMKHYFQLFRMKSAAAKIDVFYVMSGMWKTSAERFFLWIGGFRPSELLKVLLPHFDPLTDQQLLDVCNLRQSCQQAEDALSQGMEKLQHTLAESVAAGKLGEGSYIPQMTCAMERLEALVSFVNQADHLRHETLQQMHRILTTRQAARGLLALGEYFQRLRALSSSWAARQREPT
# Biological target: MeGRXC3P65L (GAL4 DNA-binding domain fusion, MeGRXC3P65L:pGBKT7) (cassava (Manihot esculenta))
# Experiment: two-hybrid; Matchmaker Gold system, yeast strain Y2HGold; MeGRXC3P65L:pGBKT7 as bait, TGA factors in pGADT7 as prey, pairwise co-transformed; growth on QDO/X/A (SD/-Ade/-His/-Leu/-Trp with 40 ug/mL X-alpha-Gal and 200 ng/mL Aureobasidin A)
binder,measurement,value
B1,binding,no binding

# Results are given in words; binding and its absence hold for the method and conditions named. Tags and fused reporters may be left off the sequences shown.
